Results deposited as PubChem BioAssay AID504774 (Drosophila RNAi Screening Center, 2011).
In all, the deposit lists about 23,000 reagents; below is an unselected part of those with a known target gene and a result. 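Values are quantile-normalised luminescence on an arbitrary scale; higher means more cells surviving MMS.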 A plus sign joins genes that one reagent is predicted to hit.

Screen: 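Genes required for cells to withstand methyl methanesulphonate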 (primary screen)
Cell system: Drosophila Kc167 cells
Knock-down reagent: long dsRNA against Drosophila genes, about 0.25 µg dsRNA per well
Timing: about 6 days: 3 days knock-down, then 3 days with or without MMS
Challenge: methyl methanesulphonate 0.004% (w/v) for 3 days after knock-down
Read-out: 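Viability in wells given MMS, read as ATP luminescence, normalised by quantiles plate by plate and averaged across replicates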
Reading the numbers: mean viability with MMS and viability with MMS: higher = more surviving cells after MMS

The first 3 entries, to show the layout:
Target gene | PubChem SID | mean viability with MMS | viability with MMS, replicate 1 | viability with MMS, replicate 2
CG5096 (GeneID 34410) | SID104182605 | 3.39e6 | 3.74e6 | 3.90e6
ScsbetaA (GeneID 41067) | SID104194238 | 3.64e6 | 4.24e6 | 4.05e6
Rab21 (GeneID 3355163) | SID104200760 | 3.24e6 | 3.75e6 | 3.74e6

The list itself, from the first entry:
Target gene | PubChem SID | mean viability with MMS | viability with MMS, replicate 1 | viability with MMS, replicate 2
CG5096 (GeneID 34410) | SID104182605 | 3.39e6 | 3.74e6 | 3.90e6
ScsbetaA (GeneID 41067) | SID104194238 | 3.64e6 | 4.24e6 | 4.05e6
Rab21 (GeneID 3355163) | SID104200760 | 3.24e6 | 3.75e6 | 3.74e6
gNacalpha (GeneID 33279) | SID104180446 | 3.46e6 | 3.96e6 | 3.86e6
CG5070 (GeneID 32705) | SID104199724 | 3.46e6 | 3.89e6 | 3.96e6
CG9705 (GeneID 39875) | SID104190886 | 3.73e6 | 4.10e6 | 4.26e6
rho (GeneID 38168) | SID104188526 | 3.48e6 | 3.96e6 | 3.94e6
Cpr49Ad (GeneID 36349) | SID104187076 | 3.54e6 | 4.16e6 | 3.95e6
CG32278 + CG14963 | SID104201739 | 3.59e6 | 4.09e6 | 4.01e6
CG1116 (GeneID 40622) | SID104191958 | 3.65e6 | 4.08e6 | 4.20e6
CG3909 (GeneID 41226) | SID104193942 | 3.43e6 | 3.89e6 | 3.94e6
CG33095 (GeneID 43012) | SID104194233 | 3.61e6 | 4.04e6 | 4.15e6
CG1572 (GeneID 32098) | SID104199478 | 3.68e6 | 4.05e6 | 4.35e6
CG43367 + CG32252 (retired record) | SID104201389 | 3.43e6 | 3.86e6 | 3.96e6
CG13170 (GeneID 36325) | SID104186090 | 3.80e6 | 4.82e6 | 4.01e6
CG18745 (GeneID 59141) | SID104195174 | 3.58e6 | 4.09e6 | 4.04e6
kni (GeneID 40287) | SID104191683 | 3.44e6 | 3.76e6 | 4.00e6
kni (GeneID 40287) | SID104202450 | 3.73e6 | 4.16e6 | 4.30e6
CG13243 (GeneID 34933) | SID104181712 | 3.63e6 | 4.09e6 | 4.12e6
Nxf3 (GeneID 317878) | SID104201418 | 3.44e6 | 3.90e6 | 3.95e6
CG42818 + Ca-Ma2d | SID104181755 | 3.55e6 | 3.94e6 | 4.11e6
Rdh1 (GeneID 35708) | SID104186604 | 3.42e6 | 4.01e6 | 3.68e6
CG31223 (GeneID 326127) | SID104194907 | 3.37e6 | 3.85e6 | 3.80e6
Obp19c (GeneID 33039) | SID104200320 | 3.49e6 | 3.94e6 | 4.00e6
dsh (GeneID 32078) | SID104199595 | 3.51e6 | 3.94e6 | 4.01e6
CG18823 (GeneID 59184) | SID104197960 | 3.53e6 | 3.99e6 | 4.03e6
slpr (GeneID 44111) | SID104198017 | 3.58e6 | 4.06e6 | 3.97e6
slpr (GeneID 44111) | SID104202678 | 3.53e6 | 4.04e6 | 4.00e6
